Data taken from paper PMC12299885.
These are yes or no findings as the source states them, for the method shown. Binding seen in cells or lysates may run through a third protein.

Chains of the proteins cited; added tags and fusions are not shown. Residues count along the entry.
UniProt Q60841, residues 27-3461: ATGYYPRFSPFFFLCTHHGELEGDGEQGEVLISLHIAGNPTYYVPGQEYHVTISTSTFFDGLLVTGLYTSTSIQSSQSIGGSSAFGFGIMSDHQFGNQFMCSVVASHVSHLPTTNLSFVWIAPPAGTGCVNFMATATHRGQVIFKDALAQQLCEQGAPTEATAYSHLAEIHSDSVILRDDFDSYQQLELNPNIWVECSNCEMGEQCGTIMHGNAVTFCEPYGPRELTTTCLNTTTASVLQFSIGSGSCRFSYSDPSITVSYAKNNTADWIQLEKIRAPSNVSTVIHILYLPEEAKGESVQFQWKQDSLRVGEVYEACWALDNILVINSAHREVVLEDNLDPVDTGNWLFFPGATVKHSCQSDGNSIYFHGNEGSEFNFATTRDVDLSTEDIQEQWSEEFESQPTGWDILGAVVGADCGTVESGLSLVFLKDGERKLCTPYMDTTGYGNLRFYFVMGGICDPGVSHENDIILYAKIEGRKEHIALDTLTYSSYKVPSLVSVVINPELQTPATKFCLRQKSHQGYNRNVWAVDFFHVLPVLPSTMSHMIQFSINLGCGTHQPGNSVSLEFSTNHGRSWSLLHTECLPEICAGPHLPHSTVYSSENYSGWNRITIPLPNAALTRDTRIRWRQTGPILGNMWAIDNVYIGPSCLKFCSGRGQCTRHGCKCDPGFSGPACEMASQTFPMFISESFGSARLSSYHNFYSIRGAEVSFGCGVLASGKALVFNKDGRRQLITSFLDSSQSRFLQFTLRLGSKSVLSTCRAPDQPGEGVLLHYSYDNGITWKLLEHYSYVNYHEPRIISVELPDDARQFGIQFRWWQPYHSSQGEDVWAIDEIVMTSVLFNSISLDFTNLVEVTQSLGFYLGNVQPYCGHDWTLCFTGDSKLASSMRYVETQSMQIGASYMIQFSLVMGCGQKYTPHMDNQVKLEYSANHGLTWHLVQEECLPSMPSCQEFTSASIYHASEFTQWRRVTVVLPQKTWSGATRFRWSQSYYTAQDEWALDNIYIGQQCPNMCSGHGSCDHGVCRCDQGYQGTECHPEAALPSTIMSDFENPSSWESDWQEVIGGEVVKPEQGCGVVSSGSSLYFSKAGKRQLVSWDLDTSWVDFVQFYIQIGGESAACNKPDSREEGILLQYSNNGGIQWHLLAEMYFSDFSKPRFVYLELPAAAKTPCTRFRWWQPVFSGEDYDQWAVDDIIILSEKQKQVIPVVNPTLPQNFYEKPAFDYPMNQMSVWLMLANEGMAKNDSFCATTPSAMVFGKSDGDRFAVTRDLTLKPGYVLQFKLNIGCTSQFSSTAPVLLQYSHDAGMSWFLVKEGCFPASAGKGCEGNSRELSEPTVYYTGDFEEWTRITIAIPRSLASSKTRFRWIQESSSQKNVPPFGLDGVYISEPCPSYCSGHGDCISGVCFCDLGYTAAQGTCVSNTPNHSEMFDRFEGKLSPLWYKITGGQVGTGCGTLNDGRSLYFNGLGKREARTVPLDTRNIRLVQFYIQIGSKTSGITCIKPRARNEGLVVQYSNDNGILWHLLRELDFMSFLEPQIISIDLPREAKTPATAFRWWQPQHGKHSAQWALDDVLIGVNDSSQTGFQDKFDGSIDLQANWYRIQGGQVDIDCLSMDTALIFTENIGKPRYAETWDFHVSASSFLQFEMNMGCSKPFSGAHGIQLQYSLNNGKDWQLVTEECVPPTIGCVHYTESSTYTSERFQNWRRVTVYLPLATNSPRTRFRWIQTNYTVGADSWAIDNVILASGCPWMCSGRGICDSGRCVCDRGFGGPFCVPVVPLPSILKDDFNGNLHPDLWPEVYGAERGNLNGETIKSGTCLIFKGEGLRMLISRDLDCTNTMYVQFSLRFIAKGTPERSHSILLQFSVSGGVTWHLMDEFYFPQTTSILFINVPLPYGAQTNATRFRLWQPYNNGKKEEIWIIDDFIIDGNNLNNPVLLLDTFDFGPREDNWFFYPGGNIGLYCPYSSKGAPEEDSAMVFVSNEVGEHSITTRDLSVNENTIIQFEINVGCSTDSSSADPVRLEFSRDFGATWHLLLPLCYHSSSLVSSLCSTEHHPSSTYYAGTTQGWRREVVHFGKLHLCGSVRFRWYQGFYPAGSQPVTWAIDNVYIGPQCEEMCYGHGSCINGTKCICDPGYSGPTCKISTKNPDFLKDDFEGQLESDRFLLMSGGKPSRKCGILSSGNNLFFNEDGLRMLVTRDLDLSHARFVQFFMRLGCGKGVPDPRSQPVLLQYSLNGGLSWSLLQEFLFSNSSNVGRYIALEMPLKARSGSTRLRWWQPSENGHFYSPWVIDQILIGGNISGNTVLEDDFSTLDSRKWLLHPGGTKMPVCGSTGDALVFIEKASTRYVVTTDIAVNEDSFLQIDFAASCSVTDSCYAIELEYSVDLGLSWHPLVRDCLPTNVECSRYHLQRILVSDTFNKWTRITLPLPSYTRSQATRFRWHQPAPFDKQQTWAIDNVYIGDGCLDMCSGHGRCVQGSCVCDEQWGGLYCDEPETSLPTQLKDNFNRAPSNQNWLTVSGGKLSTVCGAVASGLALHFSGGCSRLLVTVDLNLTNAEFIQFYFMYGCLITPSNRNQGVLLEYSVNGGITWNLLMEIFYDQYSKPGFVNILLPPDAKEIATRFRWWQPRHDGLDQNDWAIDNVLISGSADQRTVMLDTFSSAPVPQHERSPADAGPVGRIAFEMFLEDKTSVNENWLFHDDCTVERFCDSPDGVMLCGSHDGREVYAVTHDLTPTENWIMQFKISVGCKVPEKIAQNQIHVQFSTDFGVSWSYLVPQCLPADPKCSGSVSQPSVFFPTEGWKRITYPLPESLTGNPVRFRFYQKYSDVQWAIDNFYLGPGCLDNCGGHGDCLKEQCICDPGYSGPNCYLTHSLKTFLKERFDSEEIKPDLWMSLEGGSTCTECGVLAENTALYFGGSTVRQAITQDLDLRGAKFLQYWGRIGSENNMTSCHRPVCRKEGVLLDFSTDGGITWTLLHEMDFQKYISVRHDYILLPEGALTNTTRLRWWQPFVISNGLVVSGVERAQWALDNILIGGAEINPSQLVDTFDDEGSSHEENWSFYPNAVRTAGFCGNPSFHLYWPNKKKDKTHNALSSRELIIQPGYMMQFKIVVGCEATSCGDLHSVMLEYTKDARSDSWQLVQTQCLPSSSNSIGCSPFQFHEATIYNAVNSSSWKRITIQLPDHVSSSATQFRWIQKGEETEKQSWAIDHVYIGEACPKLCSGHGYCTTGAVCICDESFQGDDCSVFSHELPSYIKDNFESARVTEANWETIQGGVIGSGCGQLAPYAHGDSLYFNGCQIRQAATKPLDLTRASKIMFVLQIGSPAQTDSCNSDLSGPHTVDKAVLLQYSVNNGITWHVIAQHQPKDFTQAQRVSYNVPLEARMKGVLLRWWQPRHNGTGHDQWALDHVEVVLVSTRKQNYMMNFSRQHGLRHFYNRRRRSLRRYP
UniProt Q924X6, residues 29-996: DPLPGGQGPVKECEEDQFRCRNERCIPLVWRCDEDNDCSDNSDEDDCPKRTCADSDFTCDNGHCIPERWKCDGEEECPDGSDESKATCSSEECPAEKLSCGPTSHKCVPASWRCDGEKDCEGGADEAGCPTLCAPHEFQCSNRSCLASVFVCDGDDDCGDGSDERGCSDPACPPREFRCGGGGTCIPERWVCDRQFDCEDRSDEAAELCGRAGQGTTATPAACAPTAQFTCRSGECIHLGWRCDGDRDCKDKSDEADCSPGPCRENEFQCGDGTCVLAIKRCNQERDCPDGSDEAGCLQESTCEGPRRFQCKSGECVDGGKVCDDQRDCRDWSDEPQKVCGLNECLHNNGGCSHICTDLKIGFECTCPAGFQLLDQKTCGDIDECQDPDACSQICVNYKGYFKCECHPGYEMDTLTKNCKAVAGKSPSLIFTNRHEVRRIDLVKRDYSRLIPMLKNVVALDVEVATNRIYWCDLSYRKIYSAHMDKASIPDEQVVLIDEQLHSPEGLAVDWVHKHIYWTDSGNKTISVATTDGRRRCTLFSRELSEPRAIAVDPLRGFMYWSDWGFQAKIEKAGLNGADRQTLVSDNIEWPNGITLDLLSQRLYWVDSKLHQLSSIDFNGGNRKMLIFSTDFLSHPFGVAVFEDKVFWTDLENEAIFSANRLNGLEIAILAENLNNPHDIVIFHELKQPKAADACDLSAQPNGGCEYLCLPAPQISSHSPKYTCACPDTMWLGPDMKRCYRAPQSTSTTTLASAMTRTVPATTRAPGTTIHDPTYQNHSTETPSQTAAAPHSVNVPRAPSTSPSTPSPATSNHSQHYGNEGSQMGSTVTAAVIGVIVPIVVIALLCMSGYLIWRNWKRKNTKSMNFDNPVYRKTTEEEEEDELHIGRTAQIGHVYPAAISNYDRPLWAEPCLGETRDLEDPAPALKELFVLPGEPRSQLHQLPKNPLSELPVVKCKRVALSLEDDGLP

Key:
[1] = molecular target: cellular prion protein (PrP^C) (mouse (endogenous in P4 Prnp+/+ mouse brain)) (UniProt P04925); experiment: co-IP
[2] = molecular target: Reelin (mouse (endogenous in P4 Prnp+/+ mouse brain)) (UniProt Q60841); experiment: co-IP
[3] = molecular target: apolipoprotein E receptor 2 (ApoER2) (mouse (endogenous in P4 Prnp+/+ mouse brain)) (UniProt Q924X6); experiment: co-IP
[4] = molecular target: apolipoprotein E receptor 2 (ApoER2) (mouse (endogenous in P4 Prnp+/+ mouse brain)) (UniProt Q924X6); experiment: cross-linking + co-IP

## Reelin (from UniProt Q60841 27-3461) (ligand)
[1]
  binding: no binding

## cellular prion protein (PrP^C) (from UniProt P04925 23-230)
[2]
  binding: no binding
[3]
  binding: no binding
[4]
  binding: no binding

## apolipoprotein E receptor 2 (ApoER2) (from UniProt Q924X6 29-996)
[1]
  binding: no binding
